From US20160263073A1, “MONOACYLGLYCEROLS FOR USE IN THE TREATMENT OF MALABSORPTION HAVING A MECHANICAL BASIS” (NESTEC S.A., priority 2013, published 2016)
At least one compound was matched to its structure with a doubt left.

Assay: clinical study: sn-1(3) MAG versus fish oil (TAG) in delivering EPA under lipid maldigestion induced by XENICAL
Type: in vivo, human
Settings: humans, with XENICAL; relative to fish oil and XENICAL; p=0.0125; FIG. 4
Description: This clinical study compared the efficacy of sn-1(3) MAG and fish oil (TAG) in delivering EPA in humans under lipid maldigestion conditions induced by XENICAL® (ORLISTAT). The comparison was tested in volunteers having a BMI of 37-40 kg/m^2 and treated with XENICAL® (ORLISTAT) to induce lipid maldigestion or not treated with XENICAL® (ORLISTAT). The primary objective was to assess accretion of EPA in erythrocytes over 21 days when consumed as fish oil (TAG) or sn-1(3) MAG. The secondary objectives were to assess accretion of EPA in plasma over 21 days and also to assess the pharmacokinetics of EPA after an acute dose either in the form of sn-1(3) MAG or TAG (AUC in chylomicrons over 10 hours postprandial).

CC/C=C\C/C=C\C/C=C\C/C=C\C/C=C\CCCC(=O)OCC(O)CO (stereo not shown) [sn-1(3) MAG, sn-1(3)-monoeicosapentaenoylglycerol]
acute effect: EPA in chylomicrons, AUC over 10 hours postprandial: statistically significant
